Values joined by “and” are separate entries in the source; they are usually repeats but may differ in a detail not shown here. Equal entries are not always repeated. Structures can show the parent of a compound that is named as a salt. This is one part of the list. The data scatter; read single values as rough.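 Yeast growth was measured as optical density at 600 nm. Two-hybrid strains grew without histidine, so growth depended on Pex3–Pex19 binding. A compound was trypanosome-selective if it reduced growth of the trypanosome-pair strain by over 65% and of the human-pair strain by under 65%.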

In the first test the test system is Saccharomyces cerevisiae HF7c pdr5Δ. As to the kind of experiment: general growth inhibition of yeast HF7c pdr5Δ in -Leu -Trp medium, relative to DMSO; higher = stronger general growth inhibition. Particulars: 100 µM; 24 h.
`CC(C)Cc1ccc([C@H](C)C(=O)O)cc1` [S(+)-Ibuprofen] displayed a general growth inhibition of 71.1%.
`CC1=C(/C=C/C(C)=C/C=C/C(C)=C/C(=O)Nc2ccc(O)cc2)C(C)(C)CCC1` [Retinoic acid p-hydroxyanilide] yielded a general growth inhibition of 1.06%.
The same measure, in the same setting: in the case of `NC[C@@H]1O[C@H](C23CC4CC(CC(C4)C2)C3)Cc2c1ccc(O)c2O` it was 42%; in that of `C#CCN(C)CCCOc1ccc(Cl)cc1Cl` [Clorgyline hydrochloride], 47.3%.
Same read-out and setting: in the case of `O=c1cc(-c2ccccc2)[nH]c2nc(Cl)ccc12` [7-Chloro-4-hydroxy-2-phenyl-1,8-naphthyridine] it was 29.5%; in that of `Cc1cc(O)c2c(c1)C(=O)c1cc(O)cc(O)c1C2=O` [Emodin], 13.8%; in that of `CCOC(=O)[C@H](CCc1ccccc1)N[C@@H](C)C(=O)N1[C@H](C(=O)O)C[C@H]2CCCC[C@@H]21` [Trandolapril], 41.9%.
With `O=C1OC(=O)[C@H]2[C@@H]1[C@@H]1CC[C@H]2O1` [Norcantharidin], the general growth inhibition came to 34.6%.
As to `O=C(OCCN1CCOCC1)C1(c2ccccc2)CCCCC1`, the general growth inhibition amounted to 36.5%.
Turning to `CCSC(=N)N` [S-Ethylisothiourea hydrobromide], the general growth inhibition stood at 18.4%.
Still for that read-out and setting: with `O=C(O)CCc1nc(-c2ccccc2)c(-c2ccccc2)o1` [Oxaprozin] the figure was 41.1%; with `CC(C)(C)NCC(O)c1ccc(O)c(CO)c1` (stereo not drawn) [Albuterol hemisulfate], 53.1%.
`O=C(O)CCC(C(=O)O)N1C(=O)c2ccccc2C1=O` [L-Glutamic acid, N-phthaloyl-] returned a general growth inhibition of 10.3%.
`Cn1ccnc1` [1-Methylimidazole] showed a general growth inhibition of 51.2%.
Same read-out and setting: in the case of `O=C(CCc1ccncc1)NNC(=O)N1Cc2ccccc2Oc2ccc(Cl)cc21` it was 51.1%; in that of `COc1ccc2[nH]cc(CCNC(C)=O)c2c1` [Melatonin], 41.3%.
Same read-out and setting: with `O=c1[nH]c2cc(C(F)(F)F)ccc2n1-c1cc(C(F)(F)F)ccc1O` the figure was 63.5%; with `O=C1c2c(O)ccc(O)c2C(=O)c2c(NCCNCCO)ccc(NCCNCCO)c21` [Mitoxantrone], 19.6%; with `O=C(/C=C/c1ccc(O)cc1)CC(=O)/C=C/c1ccc(O)cc1` [Bisdemethoxycurcumin], 58.8%.
Same read-out and setting: with `NS(=O)(=O)c1nn2cc(-c3ccccc3)nc2s1` the figure was 38.3%; with `NC(=O)N1c2ccccc2C=Cc2ccccc21` [Carbamazepine], 38.8%.
Take `COc1ccc2c(c1OC)C(=O)O[C@@H]2[C@H]1c2c(cc3c(c2OC)OCO3)CCN1C` [Noscapine hydrchloride]: the general growth inhibition turned out to be 53.4%.
Same read-out and setting: with `O=C1NCCc2[nH]c(-c3ccncc3)cc21` the figure was 46.9%; with `O=C(O)c1cc(=O)c2c(Cl)cc(Cl)cc2[nH]1` [5,7-Dichlorokynurenic acid], 20%.
The same measure, in the same setting: in the case of `N=C(N)NCCC[C@H](N)C(=O)O` [L-Arginine] it was 22.4%; in that of `CNC(=N)NCCC[C@H](N)C(=O)O` [NG-Monomethyl-L-arginine acetate], 48.5%.
The same measure, in the same setting: with `CCOC(=O)C1=C(C)NC(C)=C(C(=O)OC)C1c1cccc([N+](=O)[O-])c1` (stereo not drawn) [Nitrendipine] the figure was 84.6%.
In the case of `CSc1ccc2c(c1)C(N1CCN(C)CC1)Cc1ccccc1S2` (stereo not drawn) [Methiothepin mesylate], the general growth inhibition was 41.6%.
Same read-out and setting: in the case of `COC(=O)[C@H]1[C@H]2C[C@@H]3c4[nH]c5cc(OC)ccc5c4CCN3C[C@H]2C[C@@H](OC(=O)c2cc(OC)c(OC)c(OC)c2)[C@@H]1OC` [Reserpine] it was 11.7%; in that of `COc1ccc2cc([C@H](C)C(=O)O)ccc2c1` [(-)-Naproxen sodium], 24.7%; in that of `CC(N)(Cc1ccc(O)c(O)c1)C(=O)O` (racemic) [(±)-3-(3,4-dihydroxyphenyl)-2-methyl-DL-alanine], 52.4%.
Still for that read-out and setting: in the case of `CC(C)NCC(O)c1ccc(O)c(O)c1` (racemic) [(±)-Isoproterenol hydrochloride] it was 23.4%; in that of `CCCCCCCCCCC/C=C\C(C)(C)/C=C\CCCC(=O)O` [7,7-Dimethyl-(5Z,8Z)-eicosadienoic acid], 36.7%; in that of `Nc1nc(Cl)nc2c1ncn2[C@@H]1O[C@H](COP(=O)(O)OP(=O)(O)OP(=O)(O)O)[C@H](O)C1O` (stereo partly drawn) [2-Chloroadenosine triphosphate tetrasodium], 42.3%.
Same read-out and setting: in the case of `O=C(NCCN1CCOCC1)c1ccc(Cl)cc1` [Moclobemide] it was 56.2%; in that of `CN(C)[C@@H]1C(=O)C(C(N)=O)=C(O)[C@@]2(O)C(=O)C3=C(O)c4c(O)ccc(Cl)c4[C@@H](O)[C@H]3C[C@@H]12` [Demeclocycline hydrochloride], 23.9%.
Take `Nc1ncnc2c1nc(Br)n2C1OC2COP(=O)(O)O[C@@H]2C1O` (stereo partly drawn) [8-Bromo-cAMP sodium]: the general growth inhibition turned out to be 48.9%.
On the same count and under the same terms, with `CCCCS(=N)(=O)CCC(N)C(=O)O` [L-Buthionine-sulfoximine] the figure was 29.5%.
On to `Cc1ccccc1N1C(=O)c2cc(S(N)(=O)=O)c(Cl)cc2NC1C` (stereo not drawn) [Metolazone], for which the general growth inhibition was 35% and 50.4%.

The test system of another test is human PEX3-PEX19 interaction (yeast two-hybrid). As to the kind of experiment: growth inhibition of yeast two-hybrid strain reporting HsPex3-HsPex19 interaction, relative to DMSO; higher = stronger inhibition of human Pex3-Pex19 interaction / growth. Particulars: 100 µM; 24 h; 3-aminotriazole 10 mM.
As to `CC(C)Cc1ccc([C@H](C)C(=O)O)cc1` [S(+)-Ibuprofen], the growth inhibition turned out to be 73.9%.
Take `CC1=C(/C=C/C(C)=C/C=C/C(C)=C/C(=O)Nc2ccc(O)cc2)C(C)(C)CCC1` [Retinoic acid p-hydroxyanilide]: the growth inhibition is -2.62%.
As to `NC[C@@H]1O[C@H](C23CC4CC(CC(C4)C2)C3)Cc2c1ccc(O)c2O`, the growth inhibition was 35.9%.
On the same count and under the same terms, in the case of `C#CCN(C)CCCOc1ccc(Cl)cc1Cl` [Clorgyline hydrochloride] it was 45.4%; in that of `O=c1cc(-c2ccccc2)[nH]c2nc(Cl)ccc12` [7-Chloro-4-hydroxy-2-phenyl-1,8-naphthyridine], 32%.
On to `Cc1cc(O)c2c(c1)C(=O)c1cc(O)cc(O)c1C2=O` [Emodin], for which the growth inhibition is -14.9%.
Still for that read-out and setting: in the case of `CCOC(=O)[C@H](CCc1ccccc1)N[C@@H](C)C(=O)N1[C@H](C(=O)O)C[C@H]2CCCC[C@@H]21` [Trandolapril] it was 46.4%.
The same measure, in the same setting: with `O=C1OC(=O)[C@H]2[C@@H]1[C@@H]1CC[C@H]2O1` [Norcantharidin] the figure was 39.6%; with `O=C(OCCN1CCOCC1)C1(c2ccccc2)CCCCC1`, 41.2%.
The same measure, in the same setting: in the case of `CCSC(=N)N` [S-Ethylisothiourea hydrobromide] it was 39.6%.
On to `O=C(O)CCc1nc(-c2ccccc2)c(-c2ccccc2)o1` [Oxaprozin], for which the growth inhibition is 35.3%.
On the same count and under the same terms, with `CC(C)(C)NCC(O)c1ccc(O)c(CO)c1` (stereo not drawn) [Albuterol hemisulfate] the figure was 46%.
With `O=C(O)CCC(C(=O)O)N1C(=O)c2ccccc2C1=O` [L-Glutamic acid, N-phthaloyl-], the growth inhibition was 7.15%.
Consider `Cn1ccnc1` [1-Methylimidazole], for which the growth inhibition came out at 38.9%.
For the molecule `O=C(CCc1ccncc1)NNC(=O)N1Cc2ccccc2Oc2ccc(Cl)cc21`, the growth inhibition was 38.2%.
The same measure, in the same setting: with `COc1ccc2[nH]cc(CCNC(C)=O)c2c1` [Melatonin] the figure was 48.5%; with `O=c1[nH]c2cc(C(F)(F)F)ccc2n1-c1cc(C(F)(F)F)ccc1O`, 49.4%; with `O=C1c2c(O)ccc(O)c2C(=O)c2c(NCCNCCO)ccc(NCCNCCO)c21` [Mitoxantrone], -18.9%.
Same read-out and setting: with `O=C(/C=C/c1ccc(O)cc1)CC(=O)/C=C/c1ccc(O)cc1` [Bisdemethoxycurcumin] the figure was 51.8%.
Still for that read-out and setting: with `NS(=O)(=O)c1nn2cc(-c3ccccc3)nc2s1` the figure was 36.9%; with `NC(=O)N1c2ccccc2C=Cc2ccccc21` [Carbamazepine], 40.3%; with `COc1ccc2c(c1OC)C(=O)O[C@@H]2[C@H]1c2c(cc3c(c2OC)OCO3)CCN1C` [Noscapine hydrchloride], 43.4%.
With `O=C1NCCc2[nH]c(-c3ccncc3)cc21`, the growth inhibition turned out to be 53.4%.
On the same count and under the same terms, with `O=C(O)c1cc(=O)c2c(Cl)cc(Cl)cc2[nH]1` [5,7-Dichlorokynurenic acid] the figure was 25%.
The same measure, in the same setting: in the case of `N=C(N)NCCC[C@H](N)C(=O)O` [L-Arginine] it was 28.7%.
On the same count and under the same terms, in the case of `CNC(=N)NCCC[C@H](N)C(=O)O` [NG-Monomethyl-L-arginine acetate] it was 48.4%.
Regarding `CCOC(=O)C1=C(C)NC(C)=C(C(=O)OC)C1c1cccc([N+](=O)[O-])c1` (stereo not drawn) [Nitrendipine], the growth inhibition came to 81%.
The same measure, in the same setting: with `CSc1ccc2c(c1)C(N1CCN(C)CC1)Cc1ccccc1S2` (stereo not drawn) [Methiothepin mesylate] the figure was 36.9%.
Same read-out and setting: in the case of `COC(=O)[C@H]1[C@H]2C[C@@H]3c4[nH]c5cc(OC)ccc5c4CCN3C[C@H]2C[C@@H](OC(=O)c2cc(OC)c(OC)c(OC)c2)[C@@H]1OC` [Reserpine] it was 7.31%.
On the same count and under the same terms, in the case of `COc1ccc2cc([C@H](C)C(=O)O)ccc2c1` [(-)-Naproxen sodium] it was 32.1%.
Regarding `CC(N)(Cc1ccc(O)c(O)c1)C(=O)O` (racemic) [(±)-3-(3,4-dihydroxyphenyl)-2-methyl-DL-alanine], the growth inhibition worked out at 52.4%.
On the same count and under the same terms, with `CC(C)NCC(O)c1ccc(O)c(O)c1` (racemic) [(±)-Isoproterenol hydrochloride] the figure was 27.5%; with `CCCCCCCCCCC/C=C\C(C)(C)/C=C\CCCC(=O)O` [7,7-Dimethyl-(5Z,8Z)-eicosadienoic acid], 35.7%.
The same measure, in the same setting: in the case of `Nc1nc(Cl)nc2c1ncn2[C@@H]1O[C@H](COP(=O)(O)OP(=O)(O)OP(=O)(O)O)[C@H](O)C1O` (stereo partly drawn) [2-Chloroadenosine triphosphate tetrasodium] it was 47.8%.
On the same count and under the same terms, with `O=C(NCCN1CCOCC1)c1ccc(Cl)cc1` [Moclobemide] the figure was 44%.
With `CN(C)[C@@H]1C(=O)C(C(N)=O)=C(O)[C@@]2(O)C(=O)C3=C(O)c4c(O)ccc(Cl)c4[C@@H](O)[C@H]3C[C@@H]12` [Demeclocycline hydrochloride], the growth inhibition was 31.5%.
On the same count and under the same terms, in the case of `Nc1ncnc2c1nc(Br)n2C1OC2COP(=O)(O)O[C@@H]2C1O` (stereo partly drawn) [8-Bromo-cAMP sodium] it was 41.5%; in that of `CCCCS(=N)(=O)CCC(N)C(=O)O` [L-Buthionine-sulfoximine], 30.7%.
The same measure, in the same setting: with `Cc1ccccc1N1C(=O)c2cc(S(N)(=O)=O)c(Cl)cc2NC1C` (stereo not drawn) [Metolazone] the figure was 36.8% and 45.7%.

These data come from the supplement of paper PMC8326762, “A Small Molecule Inhibitor of Pex3–Pex19 Interaction Disrupts Glycosome Biogenesis and Causes Lethality in Trypanosoma brucei” (Frontiers in Cell and Developmental Biology, 2021).
